In US11344634B2, “Activity based probe and uses thereof for imaging” (Yissum Research Development Company of the Hebrew …, priority 2016, dated 2022):

Assay: Detection level of contrast tags by dual energy micro-CT
Conditions: for minimal detected concentration: in water

Molecule | HU at minimal detected concentration (Beam E 35 keV) [HU] | HU at minimal detected concentration (Beam E 85 keV) [HU] | minimal detected concentration (Beam E 35 keV) [mg/mL] | minimal detected concentration (Beam E 85 keV) [mg/mL]
[Gd] [Gadolinium] | 17 ± 3.5 | 38 ± 8.8 | 0.05 | 0.1
Iodine | 10 ± 3.5 | 15 ± 8.8 | 0.05 | 0.5
